PubChem BioAssay AID1259405 | NCATS | 2018
The whole screen tested about 50,000 reagents; shown is an unselected part. About 4,000 of all reagents (8%) were called active. 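Mouse siRNA library applied to hamster cells; one well for each siRNA.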 Entries without a mark were called inactive. Reagents against one gene are numbered here.

Test: 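Knock-downs that lift recombinant protein yield in hamster ovary cells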 (primary screen)
Cells: Chinese hamster CHO-K1 ovary cells with stable secreted eGFP expression
Reagent: single siRNA against mouse genes, 0.8 pmol siRNA per well (2 µl of 400 nM stock)
Time to read-out: 3 days
Detection: 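Per-well intracellular GFP measured by laser scanning cytometry, plus viability from ATP luminescence, each relative to plate median of non-targeting control wells, in %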
Direction: GFP, % of control: higher = more GFP per well, higher productivity; viability (ATP), % of control: higher = more viable cells (more ATP)
Rule for the call: 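Called active when intracellular GFP, relative to negative control, is at or above 120%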

The first 3 entries, to show the layout:
| gene | reagent no. | GFP, % of control | viability (ATP), % of control |
| --- | --- | --- | --- |
| Sval1 (seminal vesicle antigen-like 1) | 1 | 127 (active) | 85.5 |
| Sval1 (seminal vesicle antigen-like 1) | 2 | 112 | 113 |
| Sval1 (seminal vesicle antigen-like 1) | 3 | 154 (active) | 141 |

The listing, from the first entry:
| gene | reagent no. | GFP, % of control | viability (ATP), % of control |
| --- | --- | --- | --- |
| Sval1 (seminal vesicle antigen-like 1) | 1 | 127 (active) | 85.5 |
| Sval1 (seminal vesicle antigen-like 1) | 2 | 112 | 113 |
| Sval1 (seminal vesicle antigen-like 1) | 3 | 154 (active) | 141 |
| Pogk (pogo transposable element with KRAB domain) | 1 | 79.5 | 125 |
| Pogk (pogo transposable element with KRAB domain) | 2 | 87.7 | 67.6 |
| Acacb (acetyl-Coenzyme A carboxylase beta) | 1 | 53 | 56.9 |
| Acacb (acetyl-Coenzyme A carboxylase beta) | 2 | 114 | 118 |
| Acacb (acetyl-Coenzyme A carboxylase beta) | 3 | 130 (active) | 124 |
| Cnnm3 (cyclin M3) | 1 | 75.6 | 106 |
| Cnnm3 (cyclin M3) | 2 | 105 | 85.1 |
| Cnnm3 (cyclin M3) | 3 | 44.8 | 96.4 |
| Ptx3 (pentraxin related gene) | 1 | 68.2 | 65.6 |
| Ptx3 (pentraxin related gene) | 2 | 52.1 | 26.1 |
| Ptx3 (pentraxin related gene) | 3 | 54.9 | 54.5 |
| Arsk (arylsulfatase K) | 1 | 80.3 | 85.8 |
| Arsk (arylsulfatase K) | 2 | 41.6 | 37.8 |
| Arsk (arylsulfatase K) | 3 | 119 | 89.7 |
| Ccm2l (cerebral cavernous malformation 2-like) | 1 | 40.1 | 58.5 |
| Ccm2l (cerebral cavernous malformation 2-like) | 2 | 62.9 | 75.1 |
| Ccm2l (cerebral cavernous malformation 2-like) | 3 | 105 | 103 |
| Mrps22 (mitochondrial ribosomal protein S22) | 1 | 85.8 | 66.3 |
| Mrps22 (mitochondrial ribosomal protein S22) | 2 | 91.7 | 110 |
| Mrps22 (mitochondrial ribosomal protein S22) | 3 | 94.7 | 68.4 |
| Plekhm3 (pleckstrin homology and RUN domain containing M3) | 1 | 53.8 | 62.9 |
| Plekhm3 (pleckstrin homology and RUN domain containing M3) | 2 | 63.4 | 41.5 |
| Plekhm3 (pleckstrin homology and RUN domain containing M3) | 3 | 75.8 | 92.7 |
| Hoxc4 (homeobox C4) | 1 | 97.7 | 79.1 |
| Hoxc4 (homeobox C4) | 2 | 47.2 | 46.7 |
| Hoxc4 (homeobox C4) | 3 | 103 | 99.5 |
| Kirrel3os | 1 | 78.5 | 58.6 |
| Kirrel3os | 2 | 85.3 | 68.5 |
| Kirrel3os | 3 | 73.2 | 80.7 |
| Isoc1 (isochorismatase domain containing 1) | 1 | 88 | 101 |
| Isoc1 (isochorismatase domain containing 1) | 2 | 15.7 | 32 |
| Isoc1 (isochorismatase domain containing 1) | 3 | 60.9 | 61.7 |
| Krt15 (keratin 15) | 1 | 69.2 | 60.2 |
| Krt15 (keratin 15) | 2 | 89 | 75.9 |
| Six5 (sine oculis-related homeobox 5) | 1 | 116 | 104 |
| Six5 (sine oculis-related homeobox 5) | 2 | 69.4 | 83.7 |
| Six5 (sine oculis-related homeobox 5) | 3 | 89.9 | 118 |
| Vps36 (vacuolar protein sorting 36) | 1 | 55 | 48.6 |
| Vps36 (vacuolar protein sorting 36) | 2 | 97.9 | 71.5 |
| Vps36 (vacuolar protein sorting 36) | 3 | 49.5 | 60.3 |
| Zxdc (ZXD family zinc finger C) | 1 | 64.8 | 76.8 |
| Zxdc (ZXD family zinc finger C) | 2 | 49.1 | 78.6 |
| Zxdc (ZXD family zinc finger C) | 3 | 108 | 110 |
| 2900005J15Rik (RIKEN cDNA 2900005J15 gene) | 1 | 48.2 | 49.5 |
| 2900005J15Rik (RIKEN cDNA 2900005J15 gene) | 2 | 58.5 | 64.1 |
| 2900005J15Rik (RIKEN cDNA 2900005J15 gene) | 3 | 84 | 74.1 |
| Krt19 (keratin 19) | 1 | 68.1 | 69 |
| Krt19 (keratin 19) | 2 | 94.7 | 75.4 |
| Psmb1 (proteasome (prosome, macropain) subunit, beta type 1) | 1 | 19.7 | 12.4 |
| Psmb1 (proteasome (prosome, macropain) subunit, beta type 1) | 2 | 87.4 | 56 |
| Psmb1 (proteasome (prosome, macropain) subunit, beta type 1) | 3 | 58.9 | 45.7 |
| Csf2ra | 1 | 190 (active) | 142 |
| Csf2ra | 2 | 79.3 | 55.5 |
| Csf2ra | 3 | 94.9 | 84.9 |
| Mindy1 (MINDY lysine 48 deubiquitinase 1) | 1 | 43.7 | 43 |
| Mindy1 (MINDY lysine 48 deubiquitinase 1) | 2 | 33.1 | 60.3 |
| Mindy1 (MINDY lysine 48 deubiquitinase 1) | 3 | 53 | 101 |
| Spire2 (spire type actin nucleation factor 2) | 1 | 85.3 | 77.5 |
| Spire2 (spire type actin nucleation factor 2) | 2 | 50.6 | 62.3 |
| Spire2 (spire type actin nucleation factor 2) | 3 | 64.6 | 60.3 |
| Tmem80 (transmembrane protein 80) | 1 | 100 | 77.1 |
| Tmem80 (transmembrane protein 80) | 2 | 57.2 | 56.6 |
| Tmem80 (transmembrane protein 80) | 3 | 66.5 | 97.5 |
| C4bp (complement component 4 binding protein) | 1 | 36.2 | 41.1 |
| C4bp (complement component 4 binding protein) | 2 | 73.5 | 76.1 |
| C4bp (complement component 4 binding protein) | 3 | 95.4 | 59.6 |
| Sspo (SCO-spondin) | 1 | 45.7 | 62.7 |
| Sspo (SCO-spondin) | 2 | 92 | 79.1 |
| Sspo (SCO-spondin) | 3 | 72.1 | 50.2 |
| Tspan12 (tetraspanin 12) | 1 | 95.7 | 86.4 |
| Tspan12 (tetraspanin 12) | 2 | 114 | 67.7 |
| Tspan12 (tetraspanin 12) | 3 | 67.3 | 77.3 |
| Sntg1 (syntrophin, gamma 1) | 1 | 59.2 | 68.2 |
| Sntg1 (syntrophin, gamma 1) | 2 | 63.2 | 66.1 |
| Kif12 (kinesin family member 12) | 1 | 90.8 | 61.6 |
| Kif12 (kinesin family member 12) | 2 | 96.9 | 36.8 |
| Or5p63 (olfactory receptor family 5 subfamily P member 63) | 1 | 99.4 | 89.1 |
| Or5p63 (olfactory receptor family 5 subfamily P member 63) | 2 | 66.4 | 77.6 |
| Or5p63 (olfactory receptor family 5 subfamily P member 63) | 3 | 59.4 | 73.6 |
| Slfn2 (schlafen 2) | 1 | 60.3 | 80 |
| Slfn2 (schlafen 2) | 2 | 63.2 | 78.4 |
| Slfn2 (schlafen 2) | 3 | 83.8 | 49.3 |
